{"source": "ChEMBL document CHEMBL4316593", "about": "(Eur J Med Chem, 2019)", "format_in_all_cases": "cell-based", "settings_in_all_cases": "U-87MG ATCC", "key": {"[1]": {"experiment": "Inhibition of RTK/PI3K/AKT/mTOR signaling in human U87 cells assessed as down regulation of TYMS gene expression at cytotoxic IC50 measured after 48 hrs relative to control"}, "[2]": {"experiment": "Inhibition of RTK/PI3K/AKT/mTOR signaling in human U87 cells assessed as down regulation of PRKAB1 gene expression at cytotoxic IC50 measured after 48 hrs relative to control"}, "[3]": {"experiment": "Inhibition of RTK/PI3K/AKT/mTOR signaling in human U87 cells assessed as down regulation of HSD17B10 gene expression at cytotoxic IC50 measured after 48 hrs relative to control"}, "[4]": {"experiment": "Inhibition of RTK/PI3K/AKT/mTOR signaling in human U87 cells assessed as down regulation of SMURF1 gene expression at cytotoxic IC50 measured after 48 hrs relative to control"}, "[5]": {"experiment": "Inhibition of RTK/PI3K/AKT/mTOR signaling in human U87 cells assessed as down regulation of CDC14A gene expression at cytotoxic IC50 measured after 48 hrs relative to control"}, "[6]": {"experiment": "Inhibition of RTK/PI3K/AKT/mTOR signaling in human U87 cells assessed as down regulation of XRRA1 gene expression at cytotoxic IC50 measured after 48 hrs relative to control"}, "[7]": {"experiment": "Inhibition of RTK/PI3K/AKT/mTOR signaling in human U87 cells assessed as up regulation of CDC28 protein kinase regulatory subunit 1B gene expression at cytotoxic IC50 measured after 48 hrs relative to control"}, "[8]": {"experiment": "Inhibition of RTK/PI3K/AKT/mTOR signaling in human U87 cells assessed as down regulation of LINC01647 gene expression at cytotoxic IC50 measured after 48 hrs relative to control"}, "[9]": {"experiment": "Inhibition of RTK/PI3K/AKT/mTOR signaling in human U87 cells assessed as down regulation of RBM42 gene expression at cytotoxic IC50 measured after 48 hrs relative to control"}, "[10]": {"experiment": "Inhibition of RTK/PI3K/AKT/mTOR signaling in human U87 cells assessed as down regulation of TUBB2A gene expression at cytotoxic IC50 measured after 48 hrs relative to control"}, "[11]": {"experiment": "Inhibition of RTK/PI3K/AKT/mTOR signaling in human U87 cells assessed as down regulation of ARHGDIA gene expression at cytotoxic IC50 measured after 48 hrs relative to control"}, "[12]": {"experiment": "Inhibition of RTK/PI3K/AKT/mTOR signaling in human U87 cells assessed as up regulation of TMEM123 gene expression at cytotoxic IC50 measured after 48 hrs relative to control"}, "[13]": {"experiment": "Inhibition of RTK/PI3K/AKT/mTOR signaling in human U87 cells assessed as up regulation of CYFIP2 gene expression at cytotoxic IC50 measured after 48 hrs relative to control"}, "[14]": {"experiment": "Inhibition of RTK/PI3K/AKT/mTOR signaling in human U87 cells assessed as up regulation of RB binding protein 4, chromatin remodeling factor gene expression at cytotoxic IC50 measured after 48 hrs relative to control"}, "[15]": {"experiment": "Inhibition of RTK/PI3K/AKT/mTOR signaling in human U87 cells assessed as up regulation of myoferlin gene expression at cytotoxic IC50 measured after 48 hrs relative to control"}, "[16]": {"experiment": "Inhibition of RTK/PI3K/AKT/mTOR signaling in human U87 cells assessed as down regulation of RASD1 gene expression at cytotoxic IC50 measured after 48 hrs relative to control"}, "[17]": {"experiment": "Inhibition of RTK/PI3K/AKT/mTOR signaling in human U87 cells assessed as down regulation of ACSL1 gene expression at cytotoxic IC50 measured after 48 hrs relative to control"}, "[18]": {"experiment": "Inhibition of RTK/PI3K/AKT/mTOR signaling in human U87 cells assessed as up regulation of Kruppel like factor 4 gene expression at cytotoxic IC50 measured after 48 hrs relative to control"}, "[19]": {"experiment": "Inhibition of RTK/PI3K/AKT/mTOR signaling in human U87 cells assessed as down regulation of EIF5A2 gene expression at cytotoxic IC50 measured after 48 hrs relative to control"}, "[20]": {"experiment": "Inhibition of RTK/PI3K/AKT/mTOR signaling in human U87 cells assessed as down regulation of NAA30 gene expression at cytotoxic IC50 measured after 48 hrs relative to control"}, "[21]": {"experiment": "Inhibition of RTK/PI3K/AKT/mTOR signaling in human U87 cells assessed as down regulation of CYB5R3 gene expression at cytotoxic IC50 measured after 48 hrs relative to control"}, "[22]": {"experiment": "Inhibition of RTK/PI3K/AKT/mTOR signaling in human U87 cells assessed as up regulation of ADP ribosylation factor like GTPase 5A gene expression at cytotoxic IC50 measured after 48 hrs relative to control"}, "[23]": {"experiment": "Inhibition of RTK/PI3K/AKT/mTOR signaling in human U87 cells assessed as up regulation of CAMK1D gene expression at cytotoxic IC50 measured after 48 hrs relative to control"}, "[24]": {"experiment": "Inhibition of RTK/PI3K/AKT/mTOR signaling in human U87 cells assessed as down regulation of DNAJC24 gene expression at cytotoxic IC50 measured after 48 hrs relative to control"}, "[25]": {"experiment": "Inhibition of RTK/PI3K/AKT/mTOR signaling in human U87 cells assessed as up regulation of immunoglobulin superfamily member 3 gene expression at cytotoxic IC50 measured after 48 hrs relative to control"}, "[26]": {"experiment": "Inhibition of RTK/PI3K/AKT/mTOR signaling in human U87 cells assessed as down regulation of PCTP gene expression at cytotoxic IC50 measured after 48 hrs relative to control"}, "[27]": {"experiment": "Inhibition of RTK/PI3K/AKT/mTOR signaling in human U87 cells assessed as up regulation of branched chain ketoacid dehydrogenase kinase gene expression at cytotoxic IC50 measured after 48 hrs relative to control"}, "[28]": {"experiment": "Inhibition of RTK/PI3K/AKT/mTOR signaling in human U87 cells assessed as down regulation of GRHL1 gene expression at cytotoxic IC50 measured after 48 hrs relative to control"}, "[29]": {"experiment": "Inhibition of RTK/PI3K/AKT/mTOR signaling in human U87 cells assessed as up regulation of G protein-coupled receptor class C group 5 member C gene expression at cytotoxic IC50 measured after 48 hrs relative to control"}, "[30]": {"experiment": "Inhibition of RTK/PI3K/AKT/mTOR signaling in human U87 cells assessed as down regulation of AFF4 gene expression at cytotoxic IC50 measured after 48 hrs relative to control"}, "[31]": {"experiment": "Inhibition of RTK/PI3K/AKT/mTOR signaling in human U87 cells assessed as up regulation of GRPEL1 gene expression at cytotoxic IC50 measured after 48 hrs relative to control"}, "[32]": {"experiment": "Inhibition of RTK/PI3K/AKT/mTOR signaling in human U87 cells assessed as up regulation of bromodomain and WD repeat domain containing 3 gene expression at cytotoxic IC50 measured after 48 hrs relative to control"}}, "note": "The source gives many values for each of these; only a part stands here."}
{"smiles": "CC(=O)C(=NNc1ccccc1C#N)C(C)=O", "values": [{"measurement": "log2FC", "setting": "[1]", "result": -0.733}, {"measurement": "log2FC", "setting": "[2]", "result": -0.869}, {"measurement": "log2FC", "setting": "[3]", "result": -0.594}, {"measurement": "log2FC", "setting": "[4]", "result": -0.651}, {"measurement": "log2FC", "setting": "[5]", "result": -1.43}, {"measurement": "log2FC", "setting": "[6]", "result": -1.06}, {"measurement": "log2FC", "setting": "[7]", "result": 0.756}, {"measurement": "log2FC", "setting": "[8]", "result": -6.64}, {"measurement": "log2FC", "setting": "[9]", "result": -0.717}, {"measurement": "log2FC", "setting": "[10]", "result": -1.43}, {"measurement": "log2FC", "setting": "[11]", "result": -0.684}, {"measurement": "log2FC", "setting": "[12]", "result": 0.534}, {"measurement": "log2FC", "setting": "[13]", "result": 0.588}, {"measurement": "log2FC", "setting": "[14]", "result": 0.909}, {"measurement": "log2FC", "setting": "[15]", "result": 0.769}, {"measurement": "log2FC", "setting": "[16]", "result": -2.9}, {"measurement": "log2FC", "setting": "[17]", "result": -0.694}, {"measurement": "log2FC", "setting": "[18]", "result": 1.45}, {"measurement": "log2FC", "setting": "[19]", "result": -1.35}, {"measurement": "log2FC", "setting": "[20]", "result": -0.868}, {"measurement": "log2FC", "setting": "[21]", "result": -0.466}, {"measurement": "log2FC", "setting": "[22]", "result": 0.854}, {"measurement": "log2FC", "setting": "[23]", "result": 1.98}, {"measurement": "log2FC", "setting": "[24]", "result": -0.908}, {"measurement": "log2FC", "setting": "[25]", "result": 0.904}, {"measurement": "log2FC", "setting": "[26]", "result": -0.784}, {"measurement": "log2FC", "setting": "[27]", "result": 0.937}, {"measurement": "log2FC", "setting": "[28]", "result": -1.16}, {"measurement": "log2FC", "setting": "[29]", "result": 1.25}, {"measurement": "log2FC", "setting": "[30]", "result": -0.86}, {"measurement": "log2FC", "setting": "[31]", "result": 0.593}, {"measurement": "log2FC", "setting": "[32]", "result": 0.732}]}
